# Measured values: PubChem BioAssay AID1347076 (National Center for Advancing Translational Sciences (NCATS), 2019)
# The campaign covered roughly 400,000 compounds. About 13,000 (3.2%) were called active. The inconclusive results got no clear call from the source; some entries with a clear call stand among them for comparison. The call rests on the fitted dose curve; in most records, active means well fitted cell-killing curve with a large enough effect; inconclusive means small, poorly fitted or top-dose-only effect, or effect the other way; inactive means flat fitted curve, though single readings scatter. Potencies beside an inconclusive call are fits to weak or partial responses and may not hold up.
# Assay: qHTS assay for MDR1-selective chemotherapeutics: Primary screen using the drug-selected MDR subline cells KB-V1; further: nearly all actives have a fitted effect of over 60% in size
# Details: KB-V1 MDR cells viability, CellTiter-Glo, 72 h; activity change, negative = cytotoxicity: at 46.1 µM (top of the series)
# Procedure, shortened: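 Potencies derive from concentration-effect curves fitted to normalized luminescence (CellTiter-Glo) of KB-V1 cells treated for 72 h at 37 degrees C in phenol-red-free DMEM containing 10% FBS.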
# On the % scale 0 is the no-effect control and ±100 the full control effect; potency means the concentration at half of the fitted maximal effect.
Structure (SMILES),Potency,"activity change, negative = cytotoxicity"
COc1ccccc1/C=C(/CC(=O)NCc1ccc2c(c1)OCO2)c1nc2ccccc2s1,"inconclusive: 5.8 µM [cytotoxic, partial curve]",
CCC1C(=O)CC(c2ccccc2)NC1c1ccccc1 (stereo not drawn),"inconclusive: 29.1 µM [cytotoxic, single point]",
CCOC(=O)NC(NC(=O)OCC)C(=O)c1ccccc1,"inconclusive: 31.6 µM [cytotoxic, single point]",
COc1ccc(N2CCN(C(=O)c3cnn(-c4ccc(OC)cc4)c3C3CCN(C(=O)OC(C)(C)C)CC3)CC2)cc1,"inconclusive: 16.4 µM [rising, partial curve, poor fit]",
Cc1ccc2oc(C(=O)NC3CCS(=O)(=O)C3)cc(=O)c2c1 (stereo not drawn),"inconclusive: 29.1 µM [cytotoxic, single point]",
CCOc1cc(/C=C2/NC(=O)N(Cc3ccccc3F)C2=O)ccc1O,"inconclusive: 29.1 µM [cytotoxic, single point]",
CC(=O)Nc1ccc(C(=O)COC(=O)c2cc(C)oc2C)c(F)c1,,inconclusive: -11.1%
COc1ccc(N2CCN(C(=O)c3cn(C)c(=O)c4c3c3ccccc3n4C)CC2)cc1,inactive,
CCN1CCN(C(=O)c2ccc(Cl)c(S(=O)(=O)N3CCCCCC3)c2)CC1,"inconclusive: 23.1 µM [cytotoxic, single point]",
CCN(CC)C(=O)[C@H]1C[C@H](CC(=O)NC/C=C(\C)CCC=C(C)C)C(=O)N2CCc3c([nH]c4cc(-c5ccco5)ccc34)[C@]12C,"inconclusive: 29.1 µM [cytotoxic, single point]",
COc1cc2c(cc1OC)CN(C(=O)CCNC(=O)c1ccccc1Cl)CC2,inactive,
CC(=O)NNc1cc(C)nc(NS(=O)(=O)c2ccc(C)cc2)n1,,inconclusive: -7.75%
Cc1cccc(C(=O)N(Cc2ccccc2F)C2CCS(=O)(=O)C2)c1 (stereo not drawn),"inconclusive: 1.16 µM [rising, full curve]",
C=CCN1C=C2C(=O)C(C)(OC(=O)CCC(=O)OC)C(=O)C=C2C=C1C1CC1 (stereo not drawn),"inconclusive: 32.6 µM [rising, single point]",
COCCNC(=S)Nc1cccc2cnccc12,inactive,
Cc1ccccc1N1CCN(C(=S)c2ccc([N+](=O)[O-])cc2)CC1,active: 16.4 µM,
COc1ccc(S(=O)(=O)N2c3ccccc3OCC2c2ccccc2)cc1 (stereo not drawn),active: 5.8 µM,
COC(=O)C(=Nc1ccccc1)/C(C(=O)C(=O)N(C)c1ccccc1)=C(\O)c1ccccc1,"inconclusive: 29.1 µM [rising, single point]",
CCc1cc(Cn2nc(-c3ccccc3)cc2C(=O)NCCOC)on1,inactive,
Cc1cc(O)ccc1-c1cnc2ccccc2n1,active: 14.6 µM,
CCOc1cc(/C=C/C(=O)O)ccc1OCc1ccccc1,"inconclusive: 3.66 µM [rising, single point]",
COc1ccc2c(c1)C(C)=CC(C)(C)N2C(=O)CNCc1ccc2c(c1)OCO2,"inconclusive: 18.4 µM [cytotoxic, partial curve, poor fit]",
Cn1cc(Br)c(C(=O)N2CCc3ccccc32)n1,"inconclusive: 23.1 µM [cytotoxic, single point]",

Structure (SMILES),Potency,"activity change, negative = cytotoxicity"
CCCNC(=O)N1CCCN(S(=O)(=O)c2ccc3c(ccn3CC)c2)CC1,"inconclusive: 23.1 µM [cytotoxic, partial curve, poor fit]",
CN1CCN(S(=O)(=O)c2ccc(N3CCN(C(=O)c4ccccc4)CC3)nc2)CC1,"inconclusive: 2.59 µM [rising, partial curve, poor fit]",
O=C(CCN1CCc2ccccc2C1)c1ccc2c(c1)OCCO2,"inconclusive: 25.9 µM [cytotoxic, single point]",
CCN(CC)c1ccc(NS(=O)(=O)c2cc(-c3cc(C)no3)ccc2C)c(C)c1,"inconclusive: 6.51 µM [cytotoxic, full curve]",
CCNc1nc2c(c(=O)[nH]c(=O)n2C)n1CC(C)C,inactive,
CCOC(=O)N1CCC(NC(=O)CSCc2nc(-c3cccc(OC)c3)oc2C)CC1,"inconclusive: 5.8 µM [cytotoxic, partial curve]",
COc1ccccc1N1CCN(c2nc(C)nc3c2oc2ccccc23)CC1,active: 1.12 µM,
CC(/C=C/c1ccccc1)=N\NC(N)=S,active: 18.4 µM,
O=c1cc(-c2ccc(F)cc2)oc2ccccc12,active: 13 µM,
CSc1nc2ccc(NC(=O)CS(=O)(=O)c3ccccc3)cc2s1,"inconclusive: 6.51 µM [cytotoxic, partial curve, poor fit]",
Cc1ccc(NC(=S)NC(NC(=O)C(C)(C)C)C(Cl)(Cl)Cl)c(C)c1 (stereo not drawn),"inconclusive: 18.4 µM [cytotoxic, partial curve]",
Cc1ccc(NC(=O)COc2ccc(-c3nnco3)cc2)cc1S(=O)(=O)N1CCOCC1,inactive,
CCNC(=S)N1CCN(S(=O)(=O)c2cccc(C(F)(F)F)c2)CC1,active: 23.1 µM,
COc1cccc(-n2ccnc2SCC(=O)N2CCCc3ccccc32)c1,"inconclusive: 13 µM [cytotoxic, partial curve]",
Cc1ccc(S(=O)(=O)N2CCOCC2)cc1C(=O)NCc1ccc(F)cc1,inactive,
Cc1cccc(NC(=S)NC(NC(=O)c2ccco2)C(Cl)(Cl)Cl)c1 (stereo not drawn),"inconclusive: 23.1 µM [cytotoxic, single point]",
CN(C)C(=O)c1ccc(-c2cc(C(F)(F)F)nn2C)s1,"inconclusive: 29.1 µM [cytotoxic, single point]",
O=C(CCl)NC1CCCc2ccccc21 (stereo not drawn),"inconclusive: 29.1 µM [cytotoxic, single point]",
CCn1c(-c2ccccc2SC)n[nH]c1=S,inactive,
O=C(CN1C(=O)CCSc2ccccc21)Nc1ccc(C(F)(F)F)cc1,"inconclusive: 16.4 µM [cytotoxic, partial curve]",
O=C1NC[C@H](CCCCN2C[C@H](Cc3ccc(O)cc3)N(CC3CCCCC3)C(=O)C2=O)N(CCc2ccccc2)C1=O,"inconclusive: 29.1 µM [rising, single point]",
CCCn1c(=S)[nH]c2cc(OC)c(OC)cc2c1=O,"inconclusive: 20.6 µM [cytotoxic, single point]",
CCOC(=O)c1cnn(-c2ncnc3sc(C)c(C)c23)c1N,"inconclusive: 23.1 µM [cytotoxic, partial curve, poor fit]",

# 4 entries from above, with bars between the fields:
Structure (SMILES) | Potency | activity change, negative = cytotoxicity
CCOc1cc(/C=C2/NC(=O)N(Cc3ccccc3F)C2=O)ccc1O | inconclusive: 29.1 µM [cytotoxic, single point] | 
CCN1CCN(C(=O)c2ccc(Cl)c(S(=O)(=O)N3CCCCCC3)c2)CC1 | inconclusive: 23.1 µM [cytotoxic, single point] | 
C=CCN1C=C2C(=O)C(C)(OC(=O)CCC(=O)OC)C(=O)C=C2C=C1C1CC1 (stereo not drawn) | inconclusive: 32.6 µM [rising, single point] | 
Cc1ccc(NC(=O)COc2ccc(-c3nnco3)cc2)cc1S(=O)(=O)N1CCOCC1 | inactive | 

# (further entries)

Structure (SMILES),Potency,"activity change, negative = cytotoxicity"
O=C(O)c1ccccc1-c1ccccc1C(=O)Nc1ccc2oc(=O)c3ccccc3c2c1,"inconclusive: 2.91 µM [rising, partial curve, poor fit]",
COc1ccc(/C=C2/N=C(SCC(=O)Nc3cc(C)on3)N(c3ccccc3)C2=O)cc1,inactive,
Cc1ccc(-n2ccc(=O)c(C(=O)Nc3ccc(S(=O)(=O)Nc4nccs4)cc3)n2)cc1,"inconclusive: 29.1 µM [rising, single point]",
CCN1CCN(Cc2cc(=O)oc3ccc(C)cc23)CC1,inactive,
CCOC(=O)c1ccccc1NC(=O)Cn1ccn2nc(-c3ccc(OCC)cc3)cc2c1=O,,inconclusive: -4.1%
O=C(NCc1ccccc1)c1cc(C2CCCN(S(=O)(=O)c3cccs3)C2)on1 (stereo not drawn),inactive,
CCOc1ccc(NC(=O)C/C(C)=N/NC(=O)c2cnccn2)cc1,"inconclusive: 10.3 µM [rising, partial curve, poor fit]",
Cc1ccc(Nc2cc(C)nn2-c2nc(C)cc(=O)[nH]2)cc1,"inconclusive: 5.01 µM [cytotoxic, partial curve, poor fit]",
O=C(NCCN1CCN(c2ccccc2)CC1)c1ccc2c(c1)[nH]c(=S)n1c3ccccc3nc21,"inconclusive: 25.9 µM [rising, single point]",
COc1cc2c(cc1NC(=O)COC(=O)[C@@H](NC(=O)c1ccccc1)C(C)C)oc1ccccc12,active: 9.2 µM,
CCOC(=O)CN1CCS(=O)(=O)CC1,"inconclusive: 14.6 µM [rising, single point]",
O=Cc1cc2ccccc2nc1SCc1ccc(Cl)c(Cl)c1,active: 5.8 µM,
O=C(C(=O)N(C1CCCCC1)C1CCCCC1)c1ccccc1,"inconclusive: 20.6 µM [cytotoxic, single point]",
Cc1cc(C)cc(N(CC(=O)NCCSCc2ccccc2)S(C)(=O)=O)c1,"inconclusive: 5.17 µM [cytotoxic, full curve]",
Cc1nonc1OC(C)CNCCNc1ccc([N+](=O)[O-])cc1 (stereo not drawn),"inconclusive: 18.4 µM [cytotoxic, single point]",
Cc1cccc(OCC(=O)N(Cc2ccco2)c2c(N)n(Cc3ccccc3)c(=O)[nH]c2=O)c1,"inconclusive: 14.6 µM [rising, single point]",
NC(=S)Cc1ccccc1Cl,inactive,
COc1cc([N+](=O)[O-])ccc1NC(=O)Nc1ccc2c(c1)OCCO2,"inconclusive: 9.2 µM [cytotoxic, partial curve, poor fit]",
COc1cccc(-c2coc3cc4oc(=O)c(CCC(=O)O)c(C)c4cc23)c1,"inconclusive: 25.9 µM [rising, single point]",
O=C(/C=C/c1ccc([N+](=O)[O-])o1)NNC(=O)c1ccc(F)cc1,"inconclusive: 29.1 µM [cytotoxic, single point]",
CC(=O)[C@@]1(O)Cc2c(O)c3c(c(O)c2[C@H](O[C@H]2C[C@H](N)[C@H](O)[C@H](C)O2)C1)C(=O)c1ccccc1C3=O,"inconclusive: 1.3 µM [cytotoxic, full curve, poor fit]",
CC(C)NC(=O)NC(=O)CSc1nnc(-c2c[nH]c3ccccc23)o1,"inconclusive: 18.4 µM [rising, partial curve, poor fit]",
